Measurements as given in paper PMC12955895.
No constants are given. Whether binding was seen depends on the method and setting. Binding seen in cells or lysates may run through a third protein. Some binding calls cover weakened binding; strength is not graded here.

Protein sequences, listed by entry. Tags and fused reporters are not part of them.
UniProt P60842: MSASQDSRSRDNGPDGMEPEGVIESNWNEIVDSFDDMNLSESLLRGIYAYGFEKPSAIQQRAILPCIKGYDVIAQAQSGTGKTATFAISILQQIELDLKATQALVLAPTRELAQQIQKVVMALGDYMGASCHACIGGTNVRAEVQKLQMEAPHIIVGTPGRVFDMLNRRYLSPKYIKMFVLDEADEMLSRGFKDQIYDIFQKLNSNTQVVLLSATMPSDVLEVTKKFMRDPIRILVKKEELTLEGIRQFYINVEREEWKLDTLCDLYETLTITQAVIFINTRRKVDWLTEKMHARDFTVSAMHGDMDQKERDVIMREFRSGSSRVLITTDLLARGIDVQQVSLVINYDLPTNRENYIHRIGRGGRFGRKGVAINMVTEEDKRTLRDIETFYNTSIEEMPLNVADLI
UniProt P06730: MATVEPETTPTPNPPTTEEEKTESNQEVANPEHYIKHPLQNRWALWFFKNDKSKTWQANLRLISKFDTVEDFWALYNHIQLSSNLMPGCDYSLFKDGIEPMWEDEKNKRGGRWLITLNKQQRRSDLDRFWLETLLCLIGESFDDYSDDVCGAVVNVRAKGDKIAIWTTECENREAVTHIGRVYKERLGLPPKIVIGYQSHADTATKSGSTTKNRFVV

How the values were obtained:
TOPK, exogenous = target: T1, TOPK, exogenous (UniProt Q96KB5); assay: co-IP; exogenous TOPK and eIF4A1 in 293T and BGC823 cells
T1 sequence: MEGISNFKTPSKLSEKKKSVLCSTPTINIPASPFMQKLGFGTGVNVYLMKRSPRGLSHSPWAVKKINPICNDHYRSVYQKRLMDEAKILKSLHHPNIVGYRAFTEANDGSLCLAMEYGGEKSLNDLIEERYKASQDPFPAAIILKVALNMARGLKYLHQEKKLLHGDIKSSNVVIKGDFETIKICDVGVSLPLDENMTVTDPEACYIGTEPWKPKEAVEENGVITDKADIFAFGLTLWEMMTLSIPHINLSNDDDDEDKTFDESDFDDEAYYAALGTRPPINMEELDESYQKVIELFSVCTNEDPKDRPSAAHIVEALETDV

[1] = target: T2, T‐lymphokine‐activated killer cell‐originated protein kinase (TOPK), endogenous (human (endogenous in SGC7901, BGC823 and patient tissue)) (UniProt Q96KB5); assay: proximity ligation; PLA on gastric cancer patient tumor tissue
T2 sequence: T1 sequence

[2] = target: T2, T‐lymphokine‐activated killer cell‐originated protein kinase (TOPK), endogenous (human (endogenous in SGC7901, BGC823 and patient tissue)); assay: proximity ligation; PLA on adjacent normal tissue of gastric cancer patients
[3] = target: T2, T‐lymphokine‐activated killer cell‐originated protein kinase (TOPK), endogenous (human (endogenous in SGC7901, BGC823 and patient tissue)); assay: proximity ligation; PLA of TOPK and eIF4A1 in SGC7901 and BGC823 cells under IFN‐γ conditions (10 ng mL^−1, 48 h)
[4] = target: T2, T‐lymphokine‐activated killer cell‐originated protein kinase (TOPK), endogenous (human (endogenous in SGC7901, BGC823 and patient tissue)); assay: co-IP; endogenous TOPK and eIF4A1 in SGC7901 and BGC823 cells

Substance | binding (TOPK, exogenous) | binding [1] | binding [2] | binding [3] | binding [4]
eIF4A1, exogenous (from UniProt P60842 1-406) (enzyme) | binds |  |  |  | 
eIF4E (from UniProt P06730 1-217) |  | binds |  |  | 
eIF4A1, endogenous (from UniProt P60842 1-406) (enzyme) |  | binds | no binding (condition: in adjacent normal tissues) | binds | binds
